In this assay the target is T1, FLAG-AGO1^WT (Arabidopsis ARGONAUTE1, wild type, N-terminally FLAG-tagged) (Arabidopsis thaliana) (UniProt O04379).
T1 sequence: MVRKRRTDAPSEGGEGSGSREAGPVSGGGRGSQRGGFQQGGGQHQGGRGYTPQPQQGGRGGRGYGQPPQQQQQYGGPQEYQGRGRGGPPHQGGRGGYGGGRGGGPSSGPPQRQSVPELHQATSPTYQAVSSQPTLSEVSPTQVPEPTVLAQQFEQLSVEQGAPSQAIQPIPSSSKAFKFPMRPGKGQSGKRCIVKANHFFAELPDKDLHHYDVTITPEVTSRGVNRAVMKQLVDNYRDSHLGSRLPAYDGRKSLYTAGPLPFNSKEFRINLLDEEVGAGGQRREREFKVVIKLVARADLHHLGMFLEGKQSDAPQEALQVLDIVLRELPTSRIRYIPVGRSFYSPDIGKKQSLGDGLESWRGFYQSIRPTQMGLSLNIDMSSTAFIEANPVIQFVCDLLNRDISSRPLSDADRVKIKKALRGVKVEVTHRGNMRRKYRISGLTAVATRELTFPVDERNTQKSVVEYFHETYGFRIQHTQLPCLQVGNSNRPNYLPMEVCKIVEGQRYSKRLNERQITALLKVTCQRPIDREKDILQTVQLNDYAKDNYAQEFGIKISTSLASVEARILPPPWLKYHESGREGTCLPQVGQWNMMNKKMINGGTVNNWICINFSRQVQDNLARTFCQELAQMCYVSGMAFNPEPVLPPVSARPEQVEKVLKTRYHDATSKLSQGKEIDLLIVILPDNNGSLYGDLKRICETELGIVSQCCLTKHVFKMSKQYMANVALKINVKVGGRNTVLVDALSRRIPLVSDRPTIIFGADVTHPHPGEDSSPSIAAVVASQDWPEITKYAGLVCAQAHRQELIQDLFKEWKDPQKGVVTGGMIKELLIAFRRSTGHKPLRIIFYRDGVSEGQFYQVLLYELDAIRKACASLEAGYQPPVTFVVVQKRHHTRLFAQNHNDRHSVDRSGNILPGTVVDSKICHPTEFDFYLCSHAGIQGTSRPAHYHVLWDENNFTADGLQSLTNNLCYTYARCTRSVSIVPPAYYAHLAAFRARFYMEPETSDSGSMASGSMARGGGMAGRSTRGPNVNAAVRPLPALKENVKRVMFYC
Put plainly: affinity purification with mass spectrometry.

No constants are given. Whether binding was seen depends on the method and setting. Binding seen in cells or lysates may run through a third protein. These calls come from enrichment with a bait or labelling near it, and not all partners need be listed. Where a sequence is shown, tags or fusion partners need not be part of it.

B1: SGS3 (SUPPRESSOR OF GENE … 3) (protein, UniProt Q9LDX1 1-625)
chain: MSSRAGPMSKEKNVQGGYRPEVEQLVQGLAGTRLASSQDDGGEWEVISKKNKNKPGNTSGKTWVSQNSNPPRAWGGQQQGRGSNVSGRGNNVSGRGNGNGRGIQANISGRGRALSRKYDNNFVAPPPVSRPPLEGGWNWQARGGSAQHTAVQEFPDVEDDVDNASEEENDSDALDDSDDDLASDDYDSDVSQKSHGSRKQNKWFKKFFGSLDSLSIEQINEPQRQWHCPACQNGPGAIDWYNLHPLLAHARTKGARRVKLHRELAEVLEKDLQMRGASVIPCGEIYGQWKGLGEDEKDYEIVWPPMVIIMNTRLDKDDNDKWLGMGNQELLEYFDKYEALRARHSYGPQGHRGMSVLMFESSATGYLEAERLHRELAEMGLDRIAWGQKRSMFSGGVRQLYGFLATKQDLDIFNQHSQGKTRLKFELKSYQEMVVKELRQISEDNQQLNYFKNKLSKQNKHAKVLEESLEIMSEKLRRTAEDNRIVRQRTKMQHEQNREEMDAHDRFFMDSIKQIHERRDAKEENFEMLQQQERAKVVGQQQQNINPSSNDDCRKRAEEVSSFIEFQEKEMEEFVEEREMLIKDQEKKMEDMKKRHHEEIFDLEKEFDEALEQLMYKHGLHNEDD
Take B1: the binding result was “binds”.
